Assay results published in patent US20080075730A1, “Methods and compositions for treating biofilms” (priority 2003, published 2008).
At least one structure is not confirmed: it was looked up by name or label, or the drawing left a doubt.

Test system: Pseudomonas aeruginosa PA14 gacS^− biofilms
Assay: Frequency of SCV cells arising from 24-h biofilms exposed for 18 h
Type: cell-based
Conditions: for selection for SCVs / increase of the frequency of SCV cells compared with growth controls: in words
Experimental: In an alternative set of experiments, the frequency of SCV cells arising from 24-h biofilms of P. aeruginosa PA14 gacS was evaluated. Antibiotics were diluted from stock solutions into LB broth to obtain final concentrations of […]. These were arranged in triplicate in a micro-titre plate. Biofilms were incubated in these low concentrations of antibacterials for 18 h at 35° C. and 95% relative humidity. Goat and human serum were also assayed in this array, and were kind gifts from The Life and Environmental Sciences Animal Care Facility at the University of Calgary, Department of Biological Sciences. After exposure, biofilms were treated in a manner identical to that described above.
Frequency of phenotypic variation. During the course of susceptibility assays, the proportion of SCV cells recovered from biofilms after exposure to Ag^+ or H2O2 was increased relative to the corresponding growth controls. It was queried whether this may be true for other antimicrobial agents or growth conditions. An array of clinically used antibiotics, saline, and goat and human sera were examined for an ability to select for these SCVs from 24-h biofilms of P. aeruginosa PA14 gacS. Biofilms were exposed to these agents for 18 h and each assay was performed in triplicate. Viable cell counts were determined for each exposure condition, and log-survival was determined. The proportion of SCV cells in bacterial populations recovered from these exposure conditions was calculated as the mean of the proportions from each individual trial.

Row | SMILES | selection for SCVs / increase of the frequency of SCV cells compared with growth controls | frequency of SCVs (phenotypic variants) among surviving cells, in words (18 h exposure of 24-h biofilms)
1 | C[C@@H](O)[C@H]1C(=O)N2C(C(=O)O)=C(SCCN=CN)C[C@H]12 [Imipenem] | in no instances | 
2 | CO[C@H]1/C=C/O[C@@]2(C)Oc3c(C)c(O)c4c(O)c(c(/C=N/N5CCN(C)CC5)c(O)c4c3C2=O)NC(=O)/C(C)=C\C=C\[C@H](C)[C@H](O)[C@@H](C)[C@@H](O)[C@@H](C)[C@H](OC(C)=O)[C@@H]1C [Rifampicin] | strong selective agent | approximately three of five
